Values quoted from earlier work as cited in patent US20090042849A1, “Phosphorylation of 5-lipoxygenase at ser523 and uses thereof” (priority 2006, published 2009).
At least one structure is not confirmed: it was looked up by name or label, or the drawing left a doubt.

Test system: adult canine cardiac myocytes
Details: cited from earlier work

CC1=C(C)C(=O)C(CCCCC#CCCCC#CCO)=C(C)C1=O [AA-861]
5-HPETE production and hypoxia-reoxygenation cell injury: attenuated
